Experimental data published in PubChem BioAssay AID445 (National Center for Advancing Translational Sciences (NCATS), 2006).
The list shows a part of the results. Further columns of the screen follow, without active or inactive calls. Compounds called inactive in the main read-out are mostly missing here. Words in brackets tell the shape of the fitted curve; partial curves, single points and poor fits give uncertain potencies.

Test: IkB Signaling
Details: ABC-DLBCL IkBa-CBG/CBR dual luciferase ratio (green luciferase fused to IkBa over red control in OCI-Ly3 lymphoma cells), 4 h
Method in brief: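 Luminescence ratio of IκBα-fused green versus native red beetle luciferase in OCI-Ly3 cells, 4 h post-doxycycline with compound; red signal alone, scaled from basal (0%) to zero light (-100%), flagged nonspecific or cytotoxic effects.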

[1] = measured here: control luc red channel unless noted

Compound: Cc1cc(C)n2nc(SCC3COc4ccccc4O3)nc2n1 (configuration not stated)
- AC50 [1]: 3.98 µM [rising, full curve, poor fit]

Compound: Clc1ccc(CN2CCC(CNc3ncnc4onc(-c5ccc(Cl)cc5)c34)CC2)cc1
- AC50 [1]: 20 µM [falling, partial curve]

Compound: Fc1ccc(NCc2nnc(SCc3nnc(-c4ccccc4)o3)n2Cc2ccccc2)cc1
- AC50 [1]: 25.1 µM [falling, partial curve]

Compound: COc1cc(OC)c(OC)cc1/C=C/c1nc2cc3ccccc3cc2c(=O)n1-c1ccc(F)c(Cl)c1
- AC50 [1]: 31.6 µM [falling, partial curve]

Compound: O=C(OC1CCOC1=O)c1ccc(-c2nc3ccccc3s2)s1 (configuration not stated)
- AC50 [1]: 12.6 µM [falling, partial curve]

Compound: CCC(=O)NC1(C(F)(F)F)C(=O)NC(C)=C1C#N (configuration not stated)
- AC50 [1]: 12.6 µM [falling, partial curve]

Compound: O=C(c1ccc2c(c1)N(Cc1ccccc1F)C(=O)c1ccccc1S2(=O)=O)N1CCN(c2ccccc2F)CC1
- AC50 [1]: 1.26 µM [falling, partial curve]

Compound: CCN(CC)C(=O)c1sc2c(c1C)c(=O)n(CCc1ccccc1)c(=O)n2Cc1ccc(F)cc1Cl
- AC50 [1]: 7.94 µM [falling, partial curve]

Compound: O=C1OCCC1Sc1nnc(-c2ccc(Br)cc2)o1 (configuration not stated)
- AC50 [1]: 1.58 µM [falling, full curve]

Compound: O=C(CCC1N=C2c3ccccc3N=C(SCc3cccc(Cl)c3)N2C1=O)N1CCN(c2ccccc2)CC1 (configuration not stated)
- AC50 [1]: 39.8 µM [falling, single point]

Compound: O=C(OCC(=O)N1CCN(c2ccccc2)CC1)c1ccc2ncsc2c1
- AC50 [1]: 25.1 µM [falling, partial curve]

Compound: COc1cc2[nH]c(=O)n(CCC(=O)N3CCN(c4ccc(Cl)cc4)CC3)c(=O)c2cc1OC
- AC50 [1]: 3.98 µM [falling, partial curve]

Compound: CCn1nc(-c2ccccc2)c(-c2ccccc2)c(C(=O)Nc2ccccc2C#N)c1=O
- AC50 [1]: 25.1 µM [falling, partial curve]

Compound: CCOC(=O)CSC1=C(C#N)C(c2ccco2)C(C(=O)OCc2ccccc2)=C(C)N1 (configuration not stated)
- AC50 [1]: 25.1 µM [falling, partial curve]

Compound: O=C1Oc2ccccc2C(=O)/C1=C\N1C(=O)N/C(=C\c2ccccc2O)C1=O
- AC50 [1]: 0.794 µM [falling, partial curve]

Compound: CCOc1ccc(N(CC(=O)Nc2ccccc2CC)S(=O)(=O)c2c(C)noc2C)cc1
- AC50 [1]: 5.01 µM [rising, full curve]

Compound: COc1ccc(NC(=O)c2c(NC(=O)c3ccncc3)sc3c2CCC(C(C)(C)C)C3)cc1 (configuration not stated)
- AC50 [1]: 5.01 µM [falling, full curve]

Compound: Cc1cccc(NC(=O)CSc2nc3ccccc3nc2N2CCCCC2)c1C
- AC50 [1]: 15.8 µM [falling, partial curve]

Compound: COc1cc(NC(=O)C(Cc2ccccc2)NS(=O)(=O)c2cccc3nsnc23)cc(OC)c1 (configuration not stated)
- AC50 [1]: 7.94 µM [falling, full curve]

Compound: O=C(Cn1ccn(-c2ccc(F)c(F)c2)c(=O)c1=O)NCCc1ccccc1
- AC50 [1]: 25.1 µM [rising, partial curve, poor fit]

Compound: CC(=O)c1cccc(NC(=O)CCc2c(C)nc3c(c(C)nn3-c3ccccc3)c2C)c1
- AC50 [1]: 10 µM [falling, partial curve]

Compound: CCCCNc1nc(Oc2ccc(=O)n(C)n2)nc(N2CCOCC2)n1
- AC50 [1]: 10 µM [falling, partial curve]

Compound: CCC(CC)C(=O)Nc1ccc2nc(SCC(=O)N3CCc4ccccc43)sc2c1
- AC50 [1]: 3.98 µM [falling, full curve]

Compound: O=S(=O)(c1cccc2cnccc12)N1CCNCC1
- AC50 [1]: 5.01 µM [falling, full curve]

Compound: Cc1ccc(CNC(=O)CN(c2cccc(C)c2C)S(=O)(=O)c2ccccc2)cc1
- AC50 [1]: 20 µM [falling, partial curve]

Compound: CCCCNc1ccc(-c2nc(-c3ccco3)no2)cc1[N+](=O)[O-]
- AC50 [1]: 12.6 µM [falling, partial curve]

Compound: CCOC(=O)c1c(-c2ccc(C)cc2)csc1NC(=O)c1cc(-c2ccc(C)c(F)c2)on1
- AC50 [1]: 25.1 µM [falling, single point]

Compound: CC(=O)c1cccc(NC(=O)C2CCCN(C(=O)c3cnn(-c4ccccc4)c3-n3cccc3)C2)c1 (configuration not stated)
- AC50 [1]: 25.1 µM [falling, single point]

Compound: COc1ccc(-c2nc(SCC(=O)Nc3ccc4c(c3)OCCO4)c(-c3ccc(F)cc3)[nH]2)cc1OC
- AC50 [1]: 10 µM [falling, partial curve]

Compound: O=C(c1ccc2c(c1)N(Cc1ccc(F)cc1)C(=O)c1ccccc1S2(=O)=O)N1CCN(Cc2ccccc2)CC1
- AC50 [1]: 12.6 µM [falling, partial curve]

Compound: CCOC(=O)C1CCN(C(=O)Cn2ncc3c4ccccc4n(Cc4ccc(F)cc4)c3c2=O)CC1
- AC50 [1]: 12.6 µM [falling, partial curve]

Compound: CC(C)(C)C(=O)Cn1c(=O)n(-c2ccccc2)c(=O)c2c3c(sc21)CCC3
- AC50 [1]: 0.1 µM [rising, full curve]

Compound: Cc1nn(-c2ccccc2)c2nc(-c3ccncc3)cc(C(=O)NCc3ccco3)c12
- AC50 [1]: 20 µM [falling, single point]

Compound: Cc1cc(NC(=O)CSc2ncc(C(=O)Nc3ccc(Cl)cc3)c(=O)n2C)no1
- AC50 [1]: 3.98 µM [falling, single point]

Compound: Cc1sc(NC(=O)c2ccco2)nc1-c1ccc2c(c1)CC(C)N2C(=O)C1CC1 (configuration not stated)
- AC50 (measured here: IkB-luc green channel): 7.94 µM [falling, partial curve]
- AC50 (measured here: control luc red channel): 2.51 µM [falling, full curve]

Compound: O=C(NC1CCCC1)c1ccc2c(c1)N(Cc1ccccc1)C(=O)c1ccccc1S2
- AC50 [1]: 15.8 µM [falling, partial curve]

Compound: CC1CCN(c2nc3ccc(C(=O)NCc4ccccc4Cl)cc3s2)CC1
- AC50 [1]: 3.98 µM [falling, partial curve]

Compound: COc1ccc(C2=C(N3CCN(c4cccc(C)c4)C(C)C3)c3ccccc3C2=O)cc1 (configuration not stated)
- AC50 [1]: 12.6 µM [falling, single point]

Compound: CCOc1nc(C#N)nc(N2CCCCC2)n1
- AC50 [1]: 2.51 µM [falling, partial curve]

Compound: COc1cc2ncc(C(=O)c3ccc(C)cc3)c(N3CCCCC3)c2cc1OC
- AC50 [1]: 39.8 µM [falling, single point]

Compound: NCCCCNCCCN
- AC50 [1]: 39.8 µM [rising, partial curve] [measured here: IkB-luc green channel]

Compound: Cc1cccn2c(=O)c(C(=O)NCCc3ccccc3)cnc12
- AC50 [1]: 15.8 µM [falling, partial curve]

Compound: COc1ccc(CNCCC(c2ccc3c(c2)OCO3)c2ccccc2OC)cc1 (configuration not stated)
- AC50 [1]: 25.1 µM [falling, partial curve]

Compound: Cc1cccc(NC(=O)COc2ccc(-c3nn(C)c(=O)c4ccccc34)cc2)c1
- AC50 [1]: 39.8 µM [falling, single point]

Compound: COC(=O)c1ccccc1NC(=O)CSc1nc(=O)cc(N)n1-c1ccccc1
- AC50 [1]: 7.94 µM [falling, partial curve]

Compound: COc1cc(OC)c(NC(=O)CN2CCCN(Cc3ccccc3C)S2(=O)=O)cc1Cl
- AC50 [1]: 15.8 µM [rising, partial curve]

Compound: N#Cc1ccc(OCc2nnc(SCC(=O)N3CCCc4ccccc43)n2-c2ccccc2)cc1
- AC50 [1]: 25.1 µM [falling, partial curve]

Compound: Cc1ccccc1C(=O)Nc1c(C)nc2ccccn2c1=O
- AC50 [1]: 0.501 µM [rising, partial curve, poor fit]

Compound: Cc1cc(Cl)cc2c1NC(=O)[C@]21[C@@H]2C(=O)N(Cc3ccccc3)C(=O)[C@@H]2[C@@H]2CCCN21
- AC50 [1]: 10 µM [falling, partial curve]

Compound: Cn1c(=O)oc2cc(S(=O)(=O)N3CCCC(C(=O)NCCc4ccccc4)C3)ccc21 (configuration not stated)
- AC50 [1]: 15.8 µM [falling, partial curve]

Compound: Cc1ccc(CNC(=O)c2c[nH]n3c(=O)c(Cc4ccc(Cl)cc4)c(C)nc23)cc1
- AC50 [1]: 12.6 µM [falling, partial curve]

Compound: CCC1SC(=NC(=O)c2ccc(Cl)c(Cl)c2)NC1=O (configuration not stated)
- AC50 [1]: 10 µM [falling, partial curve]

Compound: CCc1ccc(S(=O)(=O)c2cn(Cc3ccccc3F)c3cc(OC)c(OC)cc3c2=O)cc1
- AC50 [1]: 15.8 µM [falling, partial curve]

Compound: COc1ccc(NC(=O)CSc2nnc(NC(=O)NC3CCCCC3)s2)cc1OC
- AC50 [1]: 15.8 µM [falling, partial curve]

Compound: Cc1ccc(CCNC(=O)c2c3c(nc4ccccc24)C(=O)N(C2CCCCC2)C3)cc1
- AC50 [1]: 39.8 µM [falling, partial curve]

Compound: O=C(OC[C@@H](O)CO)c1ccccc1Nc1ccnc2cc(Cl)ccc12
- AC50 [1]: 3.16 µM [rising, full curve]

Compound: O=C(Nc1ccc2oc(-c3ccncc3)nc2c1)c1ccccc1Cl
- AC50 [1]: 12.6 µM [falling, partial curve]

Compound: CCCCS(=O)(=O)/C=C\C=C/S(=O)(=O)CCCC
- AC50 [1]: 3.98 µM [falling, full curve]

Compound: COc1cccc(NC(=O)c2ccc(-c3nc(COc4ccccc4)c(C)o3)cc2)c1
- AC50 [1]: 15.8 µM [rising, partial curve, poor fit]

Compound: O=C(OCc1cc(=O)n2nc(C3CCCCC3)sc2n1)c1ccc(F)cc1
- AC50 [1]: 1 µM [rising, full curve]

Compound: CCOc1ccc(-n2cc(-c3ccccc3)c3c(N4CCN(c5ccccc5OC)CC4)ncnc32)cc1
- AC50 [1]: 25.1 µM [falling, partial curve]
